Reference: paper PMC7819943, “Rice protein-binding microarrays: a tool to detect cis-acting elements near promoter regions in rice”
This is one part of the list.

These sequences were tested against T1, OsSMF1 (Oryza sativa, UniProt Q6ZLB0 1-436) (assay: protein-binding microarray (RPBM); PBS, 2% BSA, 51.3 ng/ul salmon testes DNA, 50 uM zinc acetate, 200 nM TF, 25 C, 1 h; high values mean tight binding). Settings: protein: recombinant; tags: N-terminal polyhistidine and DsRed monomer fusion (pET32a); chain copies: 2; label: CyDye5-dUTP incorporated in the synthesized complementary strand; 3' TTTTT single-stranded linker to array surface; dsDNA, one strand shown.
T1 sequence: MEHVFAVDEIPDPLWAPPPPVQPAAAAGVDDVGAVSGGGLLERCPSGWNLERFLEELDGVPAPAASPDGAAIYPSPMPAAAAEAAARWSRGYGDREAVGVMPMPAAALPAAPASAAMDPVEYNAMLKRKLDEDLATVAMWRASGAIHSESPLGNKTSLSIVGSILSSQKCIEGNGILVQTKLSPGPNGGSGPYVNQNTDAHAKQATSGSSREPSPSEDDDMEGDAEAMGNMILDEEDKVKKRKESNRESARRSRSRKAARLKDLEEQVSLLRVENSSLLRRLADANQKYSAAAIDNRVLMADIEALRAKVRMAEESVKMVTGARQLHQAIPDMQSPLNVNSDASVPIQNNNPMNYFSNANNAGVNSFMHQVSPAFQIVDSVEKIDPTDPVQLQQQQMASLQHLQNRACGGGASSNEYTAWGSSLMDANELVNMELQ
Method in brief: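 A custom Agilent array was converted to double-stranded form by primer extension with Cy5-dUTP and blocked with 2% BSA. Protein at 200 nM in PBS with 2% BSA, salmon testes DNA and 50 µM zinc acetate was applied for 1 h at 25 °C, followed by washing. The proteins were polyhistidine–DsRed N-terminal fusions of transcription factors, expressed in E. coli BL21-CodonPlus and Ni–NTA-purified. The binding signal is per-feature fluorescence intensity (arbitrary units) from an Axon 4000B scanner.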
With “AGGCACTACATGATATTGGCTATGACACTTGGCTGAACTTCGGAGTCACCTAGTGCAG” the binding signal was 3320 fluorescence intensity (a.u.). “CCGTGCGCATCCACCATGGCCTTCTTGTGCGCATCGATCACGGAGTCACCTAGTGCAG” was tested, and the binding signal was 3390 fluorescence intensity (a.u.). “ACATTCATCATATATACACCTCCTCCTCCTTCTTCCTCTACGGAGTCACCTAGTGCAG” was tested, and the binding signal was 3970 fluorescence intensity (a.u.). For “AGCGGGTGGGGTGTATAGGAGTACAGTTGTAGAGTCACCACGGAGTCACCTAGTGCAG”, the binding signal was 4070 fluorescence intensity (a.u.). With “TTCTGAGCACTCATATGCAAGAAGTCTTGCTCGTTTTGCTCGGAGTCACCTAGTGCAG” the binding signal was 12200 fluorescence intensity (a.u.). In the case of “CGTGAACTACTTGACTCTTCTCTTCATGCGTTTTCTTCAGCGGAGTCACCTAGTGCAG”, the binding signal is reported as 3710 fluorescence intensity (a.u.). For “TATATCTGATGCTCTCTTGCGTGTCCGTTTGCACTCGAGACGGAGTCACCTAGTGCAG”, the binding signal was 3540 fluorescence intensity (a.u.). In the case of “ACCTCGTCAGGTTTCCGTTCCGCCTCCGCCTCTGCTGCTCCGGAGTCACCTAGTGCAG”, the binding signal is reported as 3930 fluorescence intensity (a.u.). With “GGGGCGAAAGGGATGCTCCAGCGGTGGTGGCGCGTAGCCACGGAGTCACCTAGTGCAG” the binding signal was 3370 fluorescence intensity (a.u.). With “ACATGACTCTCTATTATTCCACACAAGATTGACTACATGTCGGAGTCACCTAGTGCAG” the binding signal was 3450 fluorescence intensity (a.u.). For “TATAAATAGCGGCCGTGTCCAGACACGCTAGTCTCACACCCGGAGTCACCTAGTGCAG”, the binding signal was 14100 fluorescence intensity (a.u.). For “CTTTCTTTCTTTCTTTGTGCCCAACTCTGACACGACTCACCGGAGTCACCTAGTGCAG”, the binding signal was 5180 fluorescence intensity (a.u.). “ACACAACTTCCACAATTCCCATGCCAAATCATTACTAACGCGGAGTCACCTAGTGCAG” was tested, and the binding signal was 4130 fluorescence intensity (a.u.). For “GCGCGCCGTCGTCGCTGCGTCACGGGGTGGTGACACGACGCGGAGTCACCTAGTGCAG”, the binding signal was 7030 fluorescence intensity (a.u.). For “CATTAGCTTCTCCAATGCTGAGGATCTGGATCCCTCTCCCCGGAGTCACCTAGTGCAG”, the binding signal was 25800 fluorescence intensity (a.u.). In the case of “TGTAGAGGAAATCGGCAAACACCGCGTGCGCTGGCACAATCGGAGTCACCTAGTGCAG”, the binding signal is reported as 6060 fluorescence intensity (a.u.). With “TCCTTCCTCTTCTTCGATCTCTCTCTCTCCCCTCAACCATCGGAGTCACCTAGTGCAG” the binding signal was 3710 fluorescence intensity (a.u.). For “AGCAGCCTACACTCGCCAACAAAAGTACTACCACCTCACGCGGAGTCACCTAGTGCAG”, the binding signal was 3750 fluorescence intensity (a.u.). In the case of “CTCATAAGTTACCTGTGATCTGTGAAGCTTGAGCTGAAGCCGGAGTCACCTAGTGCAG”, the binding signal is reported as 3310 fluorescence intensity (a.u.). With “CCACCGGGAGCCAATCACGCGCGGCCGCGTGTACACACCCCGGAGTCACCTAGTGCAG” the binding signal was 4520 fluorescence intensity (a.u.). “AAACAGGTAACAATTTATTCTATGTCGGCTTATTATAATCCGGAGTCACCTAGTGCAG” was tested, and the binding signal was 30300 fluorescence intensity (a.u.). With “CAAGGAACGTGGGCTCATCTGACGTGCGCCGTTGCGTGCGCGGAGTCACCTAGTGCAG” the binding signal was 5970 fluorescence intensity (a.u.). For “AGGCCTCCCCACCTTCTATATCACCGTCACCAGTTCACGGCGGAGTCACCTAGTGCAG”, the binding signal was 4460 fluorescence intensity (a.u.). For “GCAATAGTGGGTGACGTCGTCGTGCCAATCTCATTGTTATCGGAGTCACCTAGTGCAG”, the binding signal was 3170 fluorescence intensity (a.u.). “GCGTTGCATTAAGAGAATGATTTGGTAAATTTTCTTTGACCGGAGTCACCTAGTGCAG” was tested, and the binding signal was 15000 fluorescence intensity (a.u.). For “ACCACCCGAGACGCGACGTGGCGGCGGGCATGCAGCACCCCGGAGTCACCTAGTGCAG”, the binding signal was 5050 fluorescence intensity (a.u.). For “GCAAGACCTATTATTCCCTAAAGCATTGTGTGCTTATACTCGGAGTCACCTAGTGCAG”, the binding signal was 3440 fluorescence intensity (a.u.). “ATTACATAGTACTCCTTCGTTTTATATTATCGTTAGATTTCGGAGTCACCTAGTGCAG” was tested, and the binding signal was 3160 fluorescence intensity (a.u.). With “ACGCCGACGGTGCGGAGGCCATATATACGGCACCTGAACGCGGAGTCACCTAGTGCAG” the binding signal was 3330 fluorescence intensity (a.u.). In the case of “ATCTGTGGACGCCAACGTGGAGGATGACAGCAACCCCGGACGGAGTCACCTAGTGCAG”, the binding signal is reported as 5780 fluorescence intensity (a.u.). In the case of “GCTGTTCGATCTGGCTCTAGATTCGCCAAGATTCGTATTGCGGAGTCACCTAGTGCAG”, the binding signal is reported as 25000 fluorescence intensity (a.u.). With “CTCCCTCCCTTTCTCGCGTGTCGCGTCGTCCCCAAATCCGCGGAGTCACCTAGTGCAG” the binding signal was 3740 fluorescence intensity (a.u.). In the case of “ATAATAGCACATGTGGATATCTGTAGAATTCATTTCGTGTCGGAGTCACCTAGTGCAG”, the binding signal is reported as 3550 fluorescence intensity (a.u.). For “TTACTTTAGCTCTCATACGGTTGCGTTAGTCATGTAGGCACGGAGTCACCTAGTGCAG”, the binding signal was 3150 fluorescence intensity (a.u.). “CAGCAATGACACGGTTTGTAATCACAAGTTAATGTCTTCCCGGAGTCACCTAGTGCAG” was tested, and the binding signal was 3500 fluorescence intensity (a.u.). For “CCATGCCAAGAATCTCGCTATCTCCCGACACAGTGTCTCTCGGAGTCACCTAGTGCAG”, the binding signal was 28400 fluorescence intensity (a.u.). “TCAAAATATGAATTATGACGTGGATTGTATTGTTTTCCTTCGGAGTCACCTAGTGCAG” was tested, and the binding signal was 22700 fluorescence intensity (a.u.). With “GGGCGGCCAACGCATCTTCCTCTTCCTCTTCCTCCATCTCCGGAGTCACCTAGTGCAG” the binding signal was 3640 fluorescence intensity (a.u.). In the case of “CCTGTGGCTTCTTGTTCGCCGGGTTCAGCCGCATCCATGTCGGAGTCACCTAGTGCAG”, the binding signal is reported as 27800 fluorescence intensity (a.u.). In the case of “GGTCCCTGGCCCACACTACTGACACACTACTATCAAGTTGCGGAGTCACCTAGTGCAG”, the binding signal is reported as 5120 fluorescence intensity (a.u.). “TGGGACCTGGCTTATTTCTCACCCAAAGCCATAACCATTGCGGAGTCACCTAGTGCAG” was tested, and the binding signal was 3280 fluorescence intensity (a.u.). In the case of “TCTTTCCTTATCTTGACCTGTCGTCAGCAAATGTGTCATTCGGAGTCACCTAGTGCAG”, the binding signal is reported as 8500 fluorescence intensity (a.u.).
